Measurements reported in PubChem BioAssay AID540276 (National Center for Advancing Translational Sciences (NCATS), 2011).
Values joined by “and” are separate entries in the source; they are usually repeats but may differ in a detail not shown here. Equal values may be shown once. Screen size: about 300,000 compounds; about 5,400 (1.8%) were called active. Inconclusive results, whose numbers are uncertain, are shown with a selection of clear calls. Calls follow the shape of the full dose curve; tested in HEK293 cells. Where the call is inconclusive, the potency comes from a doubtful curve fit. The source holds several records for some structures; these can differ, active in one and inactive in another.

experiment: qHTS for inhibitors of binding or entry into cells for Marburg Virus; conditions: Marburg virus pseudotyped entry inhibition, cell reporter; activity change, negative = inhibition: at 37.8 µM (top of the series) unless noted
% is scaled to controls: 0 for no effect and ±100 for the full control effect; potency is read from the fitted curve at half-maximal effect.

SMILES	Potency	activity change, negative = inhibition
C=C(C)COc1ccc(-c2nc(N)ncc2Oc2ccc(OC)cc2)c(O)c1	inconclusive: 3.98 µM [inhibitor, full curve, poor fit]	
CN(C)C(=O)c1cc(C(=O)c2ccc(F)cc2F)c[nH]1	inactive	
COc1ccc(CNc2nc3c(-c4ccc(C)cc4)nnn3c3ccccc23)cc1	inconclusive: 15.8 µM [activator, single point]	
COc1ccc(/C=C/C(=O)N2CCC(c3ccccc3)C2)cc1 (stereo unspecified)	inconclusive: 5.62 µM [inhibitor, single point]	
Brc1ccc2c(c1)[C@H]1OCC[C@H]1[C@@H](c1cccs1)N2	inconclusive: 10 µM [inhibitor, partial curve, poor fit]	
CCC(=O)N1CCc2cc(Br)cc(S(=O)(=O)CCC(=O)N(C)c3cccc(C)c3)c21	inactive	
CCOc1ccc(NC(=O)CC2C(=O)N(c3ccc(F)cc3)C(=O)N2CCc2sccc2C)cc1 (stereo unspecified)	inconclusive: 20 µM [inhibitor, partial curve, poor fit]	
O=C(Nc1ccccc1)OCCc1ccccn1	inconclusive: 10 µM [inhibitor, partial curve]	
CC1CCCN(S(=O)(=O)c2ccc(NC(=O)Cn3nnc(-c4ccccc4F)n3)cc2)C1 (stereo unspecified)	inconclusive: 29.1 µM [inhibitor, single point]	
Cc1nc(Nc2ccccc2C(F)(F)F)sc1C(=O)N(C)C	inconclusive: 3.55 µM [activator, full curve]	
COc1cccc(C=NNc2nc3ccccc3s2)c1OC	inconclusive: 4.47 µM [inhibitor, full curve, poor fit]	
CCc1cccc(NC(=O)C2CCCN2S(=O)(=O)c2cccc3cccnc23)c1 (stereo unspecified)	inconclusive: 25.1 µM [inhibitor, single point]	
Cc1noc(C)c1C(=O)N1CCC(CO)(Cc2ccccc2)CC1	inconclusive: 0.562 µM [activator, full curve, poor fit]	
COc1ccc(C(=O)c2ncc(C(F)(F)F)cc2Cl)cc1	inactive	
CCN1CCN(CCOc2ccccc2OCc2ccccc2)CC1	inconclusive: 23.1 µM [inhibitor, partial curve, poor fit]	
Cc1cc2cc(C(c3nnnn3C(C)(C)C)N(Cc3ccco3)CC3CCCO3)c(=O)[nH]c2cc1C (stereo unspecified)	inconclusive: 23.1 µM [inhibitor, partial curve, poor fit]	
CCOC(=O)CC(NS(=O)(=O)c1ccc2[nH]cc(C(=O)O)c(=O)c2c1)c1ccc(OCC)c(OC)c1 (stereo unspecified)	inactive	
O=C(Nc1c(Cl)cccc1Cl)c1cccc2c1C(=O)N(C1CCCCC1)C2	inactive	
O=[N+]([O-])c1ccc(N2CCN(S(=O)(=O)c3ccc(Cl)cc3)CC2)cc1NCc1cccnc1	inactive	
O=C(Nc1nnc(-c2cccs2)o1)c1cc(-c2ccccc2)nc2ccccc12	inconclusive: 14.6 µM [inhibitor, partial curve, poor fit]	
COc1ccccc1NC(=O)C(C)Sc1nnnn1C (stereo unspecified)	inactive	
c1ccc(C(Cc2nc(-c3cccnc3)no2)c2ccccc2)cc1	inconclusive: 1.26 µM [activator, single point]	

SMILES	Potency	activity change, negative = inhibition
O=C(c1ccc2c(=O)n(Cc3ccccc3)c(=S)[nH]c2c1)N1CCOCC1	inconclusive: 22.4 µM [inhibitor, single point]	
CC(C)(C)c1[nH]nc2c1C(Cc1ccccc1)C(C#N)=C(N)O2 (stereo unspecified)		inconclusive: 39.6% [activator]
CN1CCN(C(=O)c2ccc(CSc3ccc(Cl)cc3)cc2)CC1	inconclusive: 35.5 µM [inhibitor, single point]	
COC(=O)CC=C[C@@H](C)[C@@H](C=NOC[C@H]1O[C@H](c2ccccc2)C=C[C@H]1Oc1ccc(OC)cc1)N[S+](=O)([O-])c1ccc(C)cc1	inactive	
COC(=O)c1c(NC(NC(=O)CC(C)C)C(Cl)(Cl)Cl)sc2c1CCC2 (stereo unspecified)	inconclusive: 35.5 µM [inhibitor, single point]	
O=c1[nH]c(-c2ccccc2)ncc1OCc1ccccc1	inconclusive: 0.631 µM [inhibitor, partial curve, poor fit]	
COc1ccc(S(=O)(=O)N2CCN(CC(=O)Nc3cc(Cl)ccc3Cl)CC2)cc1	inconclusive: 0.112 µM [activator, full curve, poor fit]	
O=C(O)Cn1nc(-c2ccccc2)cc1-c1ccccc1	inactive	
O=C(Nc1ncccc1Cl)c1ccc2c(c1)OCCO2	inconclusive: 6.31 µM [activator, single point]	
C=CCc1cc(Cl)ccc1OCCCNC(C)C	inconclusive: 29.1 µM [inhibitor, single point]	
O=c1c2ccccc2sc2c(CO)ccc(NCCN3CCCCC3)c12	inconclusive: 35.5 µM [inhibitor, single point]	
CCn1ncc(/C=N\NC(=O)c2cc(-c3ccc(C)cc3C)nc3ccccc23)c1C	inconclusive: 20 µM [inhibitor, single point]	
O=C(CN(Cc1ccccc1)S(=O)(=O)c1ccccc1)N/N=C/c1ccccc1[N+](=O)[O-]	inconclusive: 25.9 µM [inhibitor, single point]	
Cc1noc(C)c1C(=O)OCC(=O)/C=C1/N(C)c2ccccc2C1(C)C	inactive	
COc1ccc(C(=O)OCC(=O)NC(=O)NC2CCCC2)c(OC)c1	inconclusive: 35.5 µM [inhibitor, single point]	
CCN(CC(=O)Nc1ccccc1C(=O)NC1CC1)Cc1cccs1	inconclusive: 0.1 µM [activator, full curve, poor fit]	
CCOC(=O)c1c(C)c(C(=O)Nc2cc(OC)ccc2OC)c(C)n1CC	inactive	
Cc1cc(SCC(=O)N(C)CC(=O)Nc2ccc(F)cc2)nc2ccccc12	inconclusive: 35.5 µM [inhibitor, single point]	
Cc1nc([N+](=O)[O-])c(Br)n1CC(=O)c1ccc(Cl)cc1	inconclusive: 22.4 µM [inhibitor, single point]	
COc1ccc2[nH]c(O)c(N=NC(=N)N)c2c1	inconclusive: 0.631 µM [inhibitor, full curve, poor fit]	
COc1ccc(OC)c(Cc2nnc(CCC(=O)N3CCCCC3)o2)c1	inconclusive: 7.08 µM [activator, partial curve, poor fit]	
Cc1ccc(NC(=O)Cn2c(CCC(=O)O)ccc2-c2cccs2)cc1Cl	inconclusive: 20 µM [activator, partial curve, poor fit]	

SMILES	Potency	activity change, negative = inhibition
CC1=NOC(=O)/C1=C\c1ccc(-c2ccc(Cl)cc2Cl)o1	inactive	
Cc1ccc(C)c(NC(=O)CCS(=O)(=O)c2cccc3nsnc23)c1	inactive	
Cc1ccc(S(=O)(=O)NC2CC(C)(C)NC(C)(C)C2)cc1	inconclusive: 5.01 µM [activator, partial curve, poor fit]	
CCN(CC)CC(=O)Nc1c2c(nc3ccccc13)N(C)CC2	inconclusive: 22.4 µM [inhibitor, single point]	
Cc1ccc2c(CC(=O)N3CCc4ccccc43)coc2c1	inconclusive: 1.12 µM [activator, partial curve, poor fit]	
CCCCN(C(=O)c1ccc(C)cc1)c1c(N)n(CCC)c(=O)[nH]c1=O	inconclusive: 3.55 µM [activator, single point]	
Cc1ccc2cc(C#N)c(SCC(=O)NCc3ccco3)nc2c1	inconclusive: 0.58 µM [inhibitor, partial curve, poor fit]	
OC(CNCc1ccccc1)(c1ccc(F)cc1)c1ccc(F)cc1	inconclusive: 29.1 µM [inhibitor, single point]	
OCC1CCCN(Cc2cn(Cc3ccccc3)nc2-c2cc3ccccc3o2)C1 (stereo unspecified)	inconclusive: 8.91 µM [inhibitor, partial curve]	
N#Cc1ccccc1NC(=O)CN(Cc1ccccc1)Cc1ccccc1	inconclusive: 35.5 µM [inhibitor, single point]	
Cc1nc(NC2=NCN(CCCN3CCOCC3)CN2)nc2c(C)cccc12	inconclusive: 35.5 µM [inhibitor, partial curve, poor fit]	
Cc1cc(C)c2c(-n3cccc3)c(NC(=O)OC(C)C)sc2n1	inconclusive: 15.8 µM [inhibitor, partial curve, poor fit]	
O=C(CN1C(=O)CSc2ccccc21)N1CCc2ccccc21	inconclusive: 32.6 µM [inhibitor, single point]	
Cc1cc2cc(CNC(=O)c3cc4ccccc4o3)ccc2n1C	inactive	
Cc1ccc(NC(=O)C2CCN(S(=O)(=O)c3ccc4ccccc4c3)CC2)nc1	inconclusive: 3.16 µM [activator, partial curve, poor fit]	
COc1ccc(C(=O)NC2CCN(CC(=O)Nc3c(C)cccc3C)CC2)cc1OC	inactive	
O=C(O)c1ccc(NCc2nc3ccccc3n2Cc2ccccc2)cc1	inconclusive: 6.31 µM [inhibitor, single point]	
O=C(CC(NS(=O)(=O)c1ccc(Cl)cc1)c1ccco1)NCc1ccco1 (stereo unspecified)	inconclusive: 2.82 µM [activator, single point]	
CCOc1ccc(N2C(=O)CC(Sc3nnnn3-c3ccccc3)C2=O)cc1 (stereo unspecified)	inconclusive: 22.4 µM [inhibitor, single point]	
O=C(O)c1ccc(N/N=C/C=C/c2ccccc2[N+](=O)[O-])cc1	inactive	
CCN1C(=O)C=CC1=O	inactive and active: 28.2 µM	
CC(NC(=O)c1ccccc1F)c1nnc(SCC(=O)Nc2nnc(C3CC3)s2)n1C (stereo unspecified)	inactive	

Fetched by compound from the list above (three):
SMILES	Potency	activity change, negative = inhibition
Cc1cc2cc(CNC(=O)c3cc4ccccc4o3)ccc2n1C	inactive	
N#Cc1ccccc1NC(=O)CN(Cc1ccccc1)Cc1ccccc1	inconclusive: 35.5 µM [inhibitor, single point]	
O=C(O)c1ccc(N/N=C/C=C/c2ccccc2[N+](=O)[O-])cc1	inactive	
